In patent US20120121723A1, “Antimicrobial Compositions” (priority 2005, published 2012):
Read-outs that look alike come from different tables or passages of the source.

Experiments:
[1] = test system: E. coli; experiment: microbe, parasite or virus in culture; assay type: cell-based; conditions: Escherichia coli, read-out: 2-MIC-
Description: (§1) MIC testing and synergistic effects studies. The microorganisms were clinically obtained isolates. Staphylococcus aureus is a clinically significant member of the gram-positive group of bacterial pathogens. It gives rise to serious infections, and can produce bacteremia, endocarditis, and meningitis. Methicillin-resistant strains of Staphylococcus aureus (MRSA) were chosen for evaluation because they are a significant medical problem, particularly in view of the fact that methicillin is a drug of choice for treatment of S. aureus infection in the common penicillin-resistant strains. Escherichia coli was also chosen for evaluation. E. coli is a gram-negative pathogenic enterobacteriaceae, and is commonly used as a model organism for bacteria in general. The E. coli strain O157:H7, one of hundreds of strains of the bacterium E. coli, causes illness in humans.
All individual components are present in the combination at a starting point of 10,000 μg/mL, or 1% unless otherwise noted in the parenthesis in the attached tables. Combinations are serially diluted to obtain the MIC. […]
(§2) The Minimum Inhibitory Concentrations (MIC) were determined using tube dilution sensitivities. […] The cultures were incubated overnight at 37° C. and MICs were recorded. The MIC was determined as the lowest concentration of a combination which prevented visible microorganism growth (e.g., turbidity). […]

[2] = test system: MRSA; experiment: MIC by tube dilution and Kull synergy index against MRSA; assay type: cell-based; conditions: Staphylococcus aureus
Description: as §1
All individual components are present in the combination at a starting point of 10,000 μg/mL, or 1% unless otherwise noted in the parenthesis in the attached tables. Combinations are serially diluted to obtain the MIC. […]
Abbreviations in Tables 2 and 3 are as follows. MIC is the Minimum Inhibitory Concentration. MRSA is Methicillin-resistant Staphylococcus Aureus. E. coli is Escherichia coli. […] Pluronic® F127 is Pluronic® F127 microemulsion.
as §2, with “turbidity). A culture growth control without compound and several culture sensitive reference agents were used as positive controls. The assays were performed in triplicate.” for “turbidity).”

CCCCCCCCCCCCCCCC[n+]1ccccc1 [CPC, cetylpyridinium chloride]
MIC [1]: 3 µg/mL | MIC ([2]; read-out: 1-MIC-): 3.15 µg/mL | MIC ([2]; read-out: 2-MIC-): 3.15 µg/mL | MIC ([2]; read-out: 2-MIC-MRSA): 3.15 µg/mL
